Values from PubChem BioAssay AID743454 (Peter MacCallum Cancer Centre, 2014).
Shown is one part, drawn at random, of about 18,000 reagents. 450 of them (2.5%) count as active. 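Single biological run; no consistent viability z cut-off exists, so the class columns, not z-scores, define the calls.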 A number with no mark means an inactive call.

- Test: 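Search for knock-downs that restore vorinostat killing in resistant colon cancer cells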 (primary screen)
- Cell system: human HCT116-VR colon cancer cells, selected for vorinostat resistance
- Knock-down reagent: siRNA pool against human genes, 40 nM siRNA pool
- Time to read-out: vorinostat for 24 h, read-out about 72 h after transfection
- Treatment: vorinostat at 2.5 µM final
- Read-out: 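Two measures, CellTiter-Fluor viability and luminescent caspase 3/7 activity, each as fold change against same-plate mock wells, mean of duplicates, then screen-wide robust z-score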
- Reading the numbers: viability robust z-score: higher = more viable cells than screen typical; caspase robust z-score: higher = more caspase 3/7 activity than screen typical
- Call rule: 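Hits are knock-downs in viability class RV1/RV2 or caspase class CA1/CA2, excluding ones that killed cells in the no-drug cell-count arm; hits then retested with single siRNAs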

no.	gene	viability hit class	caspase hit class	viability robust z-score	caspase robust z-score
1	ST7L	no change	no change	-1.4	0.18
2	APBA3	no change	no change	-2.31	0.55
3	NUDT1	no change	no change	-1.67	-0.91
4	WFS1	no change	no change	-0.45	0.3
5	TMEM135	no change	no change	-0.11	-1.1
6	DNASE2B	no change	no change	0.8	-0.75
7	LIG4	no change	no change	-0.91	-0.29
8	USP33	no change	no change	-1.14	0.22
9	SUGT1P4-STRA6LP-CCDC180	no change	no change	-0.66	1.87
10	GPR61	no change	no change	1.36	3.87
11	HIGD1B	no change	no change	-0.4	-0.92
12	FOXF1	no change	no change	0.26	3.04
13	ZBTB9	no change	no change	-0.28	-0.81
14	SNAPC2	no change	no change	-1.06	-1.1
15	ZNF664	no change	no change	0.66	0.1
16	AHCYL2	no change	no change	1.31	-0.72
17	TMEM87A	no change	no change	-0.25	-0.7
18	MRPL33	no change	no change	-1.41	-0.96
19	TUT7	no change	no change	-0.24	-0.02
20	FNBP4	no change	no change	-0.05	0.12
21	GADL1	no change	no change	0.64	0
22	IL4I1	no change	no change	-0.61	4.08
23	REV1	no change	no change	0.09	-0.63
24	QRSL1	no change	no change	-0.44	-1.27
25	NCAM1	no change	no change	-0.46	0.23
26	BEND3	no change	no change	-0.88	1.46
27	PLCH2	no change	no change	-0.68	2.42
28	NLRP11	no change	no change	0.05	-0.52
29	MGMT	no change	no change	-0.43	-0.89
30	EVX2	no change	no change	1.01	0.8
31	ABI3BP	no change	no change	-0.19	-0.63
32	RPS21	no change	no change	-4.55	-0.26
33	L1CAM-AS1	no change	no change	-0.72	0.14
34	NEUROG1	no change	no change	0.08	0.08
35	CHI3L2	no change	no change	1.21	-0.62
36	CACTIN	no change	no change	-1.26	-1.01
37	DEPDC4	no change	no change	0.74	1.94
38	SPCS3	no change	no change	-0.14	-0.29
39	LHX5	no change	no change	-0.04	0.54
40	EXTL3	no change	no change	0.36	-0.76
41	CAMK4	no change	no change	-0.16	-0.54
42	ODAD2	no change	no change	-0.15	2.7
43	MFNG	no change	no change	-4.96	1.79
44	LHFPL2	no change	no change	0.39	-0.58
45	HLCS	no change	no change	0.2	3.01
46	CIMAP3	no change	no change	-0.54	-0.26
47	FXYD2	no change	no change	-0.6	1.25
48	OR8B8	no change	no change	-1.09	-0.62
49	DDX39B	no change	no change	-0.54	-0.2
50	SUB1	no change	no change	0.36	-0.37
51	OR52N5	no change	no change	-1.14	0.17
52	COQ8B	no change	no change	-0.12	-0.46
53	ABHD14B	no change	no change	-1.84	1.38
54	SPAG17	no change	no change	0.86	-0.11
55	H2AC19	no change	no change	2.1	0.02
56	GAB4	no change	no change	-0.44	-0.62
57	MTUS2	no change	no change	-0.68	0.98
58	VPS52	RV2 (reduced viability) (active)	CA2 (caspase activation)	-4.16	8.01
59	TMPRSS7	no change	no change	-0.78	3
60	PHOSPHO2	no change	no change	0.42	2.86
61	MRGPRX2	no change	no change	0	-0.48
62	OOSP2	no change	no change	0.69	0.04
63	MCM3AP	no change	no change	-2.28	4.94
64	EMD	no change	no change	-0.8	-0.26
65	SLC7A5	no change	no change	-1.29	-0.59
66	ZNF410	no change	no change	0.19	-0.6
67	C20orf144	no change	no change	0.56	1.88
68	EPPK1	no change	no change	1.77	2.12
69	GTF2E2	no change	no change	0.8	-0.58
70	ALYREF	no change (active)	CA2 (caspase activation)	-0.82	5.8
71	NOMO3	no change	no change	-0.46	-0.58
72	CMYA5	no change	no change	-0.01	-0.58
73	ADGRV1	no change	no change	0.57	-0.31
